“Also recorded” adds a separate entry of the source. At least one peptide structure holds a part that was inferred or is arguable (an end, a ring closure or a residue). No end group written: not given here.
What was measured:
[1] = test system: KP16 transgenic mouse model of pancreatic cancer; experiment: KP16 transgenic mouse model of pancreatic cancer; format: in vivo; conditions: in combination with gemcitabine, transgenic mice
P16 tumors = experiment: Immune cell analysis of treated P16 tumors by multi-color flow cytometry; format: in vivo; conditions: 2 mg/kg daily intraperitoneally vs vehicle, FIG. 8
[2] = test system: inflammatory disease models; experiment: Inflammatory disease models

Sequence: FAKKFAKKFK [Peptide B, Phe-Ala-Lys-Lys-Phe-Ala-Lys-Lys-Phe-Lys]
- growth of pancreatic cancers (tumor volume) [1]: reduction of tumor growth
- growth of pancreatic cancers (tumor volume) ([1]; listed as peptide B): shrank tumors
- B cells in tumors (P16 tumors): increasing B cells; also recorded: increases B cells
- macrophages in tumors (P16 tumors): reducing macrophages; also recorded: reduces macrophages
- activity in inflammatory disease models [2]: strong activity in all of them
